These are yes or no findings as the source states them, for the method shown. Binding seen in cells or lysates may run through a third protein. For part of these data: Sequences can lack the tags named with a protein. Values belong to the binder of their own block, whether it stands above or below them.
Experiments:
[1] = target: RhoA, endogenous (human (endogenous in HCC cells)) (UniProt P61586); test: co-IP; endogenous proteins in cell lysate; protein A/G agarose beads coupled with primary antibodies, 8 h rotation at 4 °C, western blot
[2] = target: RhoA in the Co-IP with exogenous tag plasmids (UniProt P61586); test: co-IP; Co-IP with exogenous tag plasmid (full-length Flag-SEPT11 and SEPT11 fragments transfected); protein A/G agarose beads coupled with primary antibodies, 8 h at 4 °C, western blot
[3] = target: T1, GEF-H1 (human (endogenous in HepG2 and Huh7)) (UniProt Q92974); test: co-IP; lysates of HCC cells with SEPT11 overexpression or control (HepG2 and Huh7 named for Fig. 7D); protein A/G agarose beads coupled with primary antibodies, 8 h at 4 °C, western blot
T1 sequence: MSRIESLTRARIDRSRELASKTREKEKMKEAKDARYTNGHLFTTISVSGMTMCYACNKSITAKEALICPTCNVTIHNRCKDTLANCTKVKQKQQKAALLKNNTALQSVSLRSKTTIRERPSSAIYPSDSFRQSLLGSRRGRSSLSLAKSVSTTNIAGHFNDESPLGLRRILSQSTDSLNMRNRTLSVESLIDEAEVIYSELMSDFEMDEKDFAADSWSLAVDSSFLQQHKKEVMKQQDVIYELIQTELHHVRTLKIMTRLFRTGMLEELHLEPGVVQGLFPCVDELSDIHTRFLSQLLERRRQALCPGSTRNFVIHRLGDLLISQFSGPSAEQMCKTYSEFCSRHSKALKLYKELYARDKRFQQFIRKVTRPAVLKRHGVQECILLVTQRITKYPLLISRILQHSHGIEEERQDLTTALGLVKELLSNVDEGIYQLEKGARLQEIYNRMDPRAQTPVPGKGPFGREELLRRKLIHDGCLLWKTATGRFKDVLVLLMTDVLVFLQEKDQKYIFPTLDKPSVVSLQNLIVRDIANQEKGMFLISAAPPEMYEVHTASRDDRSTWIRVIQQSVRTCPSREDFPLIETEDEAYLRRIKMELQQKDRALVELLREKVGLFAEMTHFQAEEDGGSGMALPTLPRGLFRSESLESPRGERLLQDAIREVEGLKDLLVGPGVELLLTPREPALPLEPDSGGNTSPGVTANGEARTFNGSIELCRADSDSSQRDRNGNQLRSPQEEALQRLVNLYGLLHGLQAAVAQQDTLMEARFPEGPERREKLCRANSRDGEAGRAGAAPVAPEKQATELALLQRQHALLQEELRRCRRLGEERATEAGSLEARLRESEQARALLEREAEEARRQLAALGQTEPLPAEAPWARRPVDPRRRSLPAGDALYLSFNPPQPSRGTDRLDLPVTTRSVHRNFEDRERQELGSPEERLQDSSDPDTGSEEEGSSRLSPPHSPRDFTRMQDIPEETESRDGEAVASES

Amino acid sequences for entries named in this document (tags omitted).
UniProt P61586: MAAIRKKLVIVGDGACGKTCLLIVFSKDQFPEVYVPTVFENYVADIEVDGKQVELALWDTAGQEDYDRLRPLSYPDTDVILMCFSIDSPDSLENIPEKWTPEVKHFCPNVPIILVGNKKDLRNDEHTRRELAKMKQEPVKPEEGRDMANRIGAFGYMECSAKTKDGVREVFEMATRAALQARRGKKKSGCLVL

binding [1]: no binding
B1: SEPT11 (Septin11), endogenous (protein, UniProt Q9NVA2 1-429)
chain: MAVAVGRPSNEELRNLSLSGHVGFDSLPDQLVNKSTSQGFCFNILCVGETGIGKSTLMDTLFNTKFESDPATHNEPGVRLKARSYELQESNVRLKLTIVDTVGFGDQINKDDSYKPIVEYIDAQFEAYLQEELKIKRSLFNYHDTRIHACLYFIAPTGHSLKSLDLVTMKKLDSKVNIIPIIAKADTIAKNELHKFKSKIMSELVSNGVQIYQFPTDEETVAEINATMSVHLPFAVVGSTEEVKIGNKMAKARQYPWGVVQVENENHCDFVKLREMLIRVNMEDLREQTHTRHYELYRRCKLEEMGFKDTDPDSKPFSLQETYEAKRNEFLGELQKKEEEMRQMFVMRVKEKEAELKEAEKELHEKFDLLKRTHQEEKKKVEDKKKELEEEVNNFQKKKAAAQLLQSQAQQSGAQQTKKDKDKKNASFT

binding [2]: no binding
B2: Flag-SEPT11, full-length (protein, UniProt Q9NVA2 1-429)
chain: MAVAVGRPSNEELRNLSLSGHVGFDSLPDQLVNKSTSQGFCFNILCVGETGIGKSTLMDTLFNTKFESDPATHNEPGVRLKARSYELQESNVRLKLTIVDTVGFGDQINKDDSYKPIVEYIDAQFEAYLQEELKIKRSLFNYHDTRIHACLYFIAPTGHSLKSLDLVTMKKLDSKVNIIPIIAKADTIAKNELHKFKSKIMSELVSNGVQIYQFPTDEETVAEINATMSVHLPFAVVGSTEEVKIGNKMAKARQYPWGVVQVENENHCDFVKLREMLIRVNMEDLREQTHTRHYELYRRCKLEEMGFKDTDPDSKPFSLQETYEAKRNEFLGELQKKEEEMRQMFVMRVKEKEAELKEAEKELHEKFDLLKRTHQEEKKKVEDKKKELEEEVNNFQKKKAAAQLLQSQAQQSGAQQTKKDKDKKNASFT

binding [3]: no binding
B3: SEPT11, overexpressed in HepG2 and Huh7 cells (protein, UniProt Q9NVA2 1-429)
chain: MAVAVGRPSNEELRNLSLSGHVGFDSLPDQLVNKSTSQGFCFNILCVGETGIGKSTLMDTLFNTKFESDPATHNEPGVRLKARSYELQESNVRLKLTIVDTVGFGDQINKDDSYKPIVEYIDAQFEAYLQEELKIKRSLFNYHDTRIHACLYFIAPTGHSLKSLDLVTMKKLDSKVNIIPIIAKADTIAKNELHKFKSKIMSELVSNGVQIYQFPTDEETVAEINATMSVHLPFAVVGSTEEVKIGNKMAKARQYPWGVVQVENENHCDFVKLREMLIRVNMEDLREQTHTRHYELYRRCKLEEMGFKDTDPDSKPFSLQETYEAKRNEFLGELQKKEEEMRQMFVMRVKEKEAELKEAEKELHEKFDLLKRTHQEEKKKVEDKKKELEEEVNNFQKKKAAAQLLQSQAQQSGAQQTKKDKDKKNASFT

— paper PMC10119145
